In publication doi:10.1101/2022.12.28.522133:
These are yes or no findings as the source states them, for the method shown. In cells and extracts the contact can be indirect. Some binding calls cover weakened binding; strength is not graded here. Tags and fused reporters may be left off the sequences shown.

Chains of the proteins cited; added tags and fusions are not shown.
UniProt P15924: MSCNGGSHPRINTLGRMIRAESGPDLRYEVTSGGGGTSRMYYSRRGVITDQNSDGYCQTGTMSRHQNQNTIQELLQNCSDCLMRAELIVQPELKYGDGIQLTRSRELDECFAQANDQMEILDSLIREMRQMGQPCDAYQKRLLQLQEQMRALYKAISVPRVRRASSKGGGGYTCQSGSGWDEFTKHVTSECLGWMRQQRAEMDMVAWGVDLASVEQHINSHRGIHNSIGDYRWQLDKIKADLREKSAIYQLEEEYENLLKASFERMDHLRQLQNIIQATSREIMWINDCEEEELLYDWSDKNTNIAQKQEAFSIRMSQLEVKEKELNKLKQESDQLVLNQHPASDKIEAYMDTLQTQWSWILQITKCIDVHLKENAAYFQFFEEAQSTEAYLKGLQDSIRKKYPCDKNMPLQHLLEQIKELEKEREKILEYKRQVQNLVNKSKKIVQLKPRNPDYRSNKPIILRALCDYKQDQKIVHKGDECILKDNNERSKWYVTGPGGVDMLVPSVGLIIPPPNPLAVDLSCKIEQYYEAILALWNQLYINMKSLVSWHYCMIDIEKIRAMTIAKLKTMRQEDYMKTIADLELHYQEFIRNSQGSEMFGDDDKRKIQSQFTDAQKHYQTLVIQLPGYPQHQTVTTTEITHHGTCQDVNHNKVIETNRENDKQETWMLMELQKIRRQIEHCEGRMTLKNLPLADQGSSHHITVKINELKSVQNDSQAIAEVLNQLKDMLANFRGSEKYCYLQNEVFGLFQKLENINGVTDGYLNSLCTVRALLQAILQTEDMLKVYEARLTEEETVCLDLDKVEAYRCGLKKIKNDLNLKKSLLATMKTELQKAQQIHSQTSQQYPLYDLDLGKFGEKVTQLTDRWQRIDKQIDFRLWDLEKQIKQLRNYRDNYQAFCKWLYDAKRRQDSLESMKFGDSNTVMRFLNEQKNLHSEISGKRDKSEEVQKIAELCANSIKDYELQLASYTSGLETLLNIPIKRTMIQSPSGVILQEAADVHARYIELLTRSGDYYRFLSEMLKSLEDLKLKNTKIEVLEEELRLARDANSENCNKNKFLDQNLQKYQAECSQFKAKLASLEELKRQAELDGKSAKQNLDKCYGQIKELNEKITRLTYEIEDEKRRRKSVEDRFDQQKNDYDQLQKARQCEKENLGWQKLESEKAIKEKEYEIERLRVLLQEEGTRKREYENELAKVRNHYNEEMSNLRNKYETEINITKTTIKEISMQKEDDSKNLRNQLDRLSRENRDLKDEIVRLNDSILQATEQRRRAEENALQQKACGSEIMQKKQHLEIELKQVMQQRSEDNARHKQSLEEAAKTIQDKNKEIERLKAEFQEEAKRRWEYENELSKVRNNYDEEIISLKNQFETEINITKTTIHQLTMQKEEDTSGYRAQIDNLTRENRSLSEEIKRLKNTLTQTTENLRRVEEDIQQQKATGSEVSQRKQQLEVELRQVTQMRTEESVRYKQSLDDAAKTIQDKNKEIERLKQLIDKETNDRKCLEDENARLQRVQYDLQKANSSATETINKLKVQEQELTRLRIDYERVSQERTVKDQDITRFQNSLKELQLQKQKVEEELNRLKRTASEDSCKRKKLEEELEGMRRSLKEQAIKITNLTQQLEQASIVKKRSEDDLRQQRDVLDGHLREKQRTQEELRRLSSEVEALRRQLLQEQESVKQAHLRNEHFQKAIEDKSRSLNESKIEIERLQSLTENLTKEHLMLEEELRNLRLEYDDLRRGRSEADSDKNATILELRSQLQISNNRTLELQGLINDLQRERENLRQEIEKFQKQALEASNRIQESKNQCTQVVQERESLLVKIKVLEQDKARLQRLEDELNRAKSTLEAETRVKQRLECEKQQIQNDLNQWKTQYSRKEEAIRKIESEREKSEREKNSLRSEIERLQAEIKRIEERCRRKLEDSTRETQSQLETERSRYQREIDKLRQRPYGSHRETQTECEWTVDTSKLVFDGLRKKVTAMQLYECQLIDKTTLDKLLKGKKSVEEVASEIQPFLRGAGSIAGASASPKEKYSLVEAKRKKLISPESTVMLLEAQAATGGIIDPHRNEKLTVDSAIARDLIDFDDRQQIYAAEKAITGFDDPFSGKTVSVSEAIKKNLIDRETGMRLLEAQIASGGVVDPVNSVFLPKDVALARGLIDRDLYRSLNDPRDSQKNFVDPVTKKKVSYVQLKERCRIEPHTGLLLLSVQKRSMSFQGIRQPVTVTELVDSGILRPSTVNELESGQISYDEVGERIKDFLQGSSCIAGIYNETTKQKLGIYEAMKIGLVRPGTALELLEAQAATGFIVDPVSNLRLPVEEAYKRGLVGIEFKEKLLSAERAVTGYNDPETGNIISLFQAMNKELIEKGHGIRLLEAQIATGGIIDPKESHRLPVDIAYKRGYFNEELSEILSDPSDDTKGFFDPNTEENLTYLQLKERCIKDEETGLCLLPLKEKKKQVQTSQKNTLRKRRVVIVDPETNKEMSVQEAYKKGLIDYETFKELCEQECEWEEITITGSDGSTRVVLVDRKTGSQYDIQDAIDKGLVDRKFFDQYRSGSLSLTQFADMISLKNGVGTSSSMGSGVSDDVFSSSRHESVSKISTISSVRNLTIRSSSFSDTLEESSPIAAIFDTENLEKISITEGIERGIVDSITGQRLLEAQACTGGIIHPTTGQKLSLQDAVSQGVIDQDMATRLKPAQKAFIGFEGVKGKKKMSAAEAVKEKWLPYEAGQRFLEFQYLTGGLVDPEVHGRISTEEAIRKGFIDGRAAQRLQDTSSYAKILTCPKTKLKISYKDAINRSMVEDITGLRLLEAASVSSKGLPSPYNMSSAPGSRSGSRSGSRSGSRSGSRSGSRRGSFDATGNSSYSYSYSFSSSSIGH

Biological target: T1, SERPINB5-GFP (human (cDNA from HaCaT)) (UniProt P36952)
T1 sequence: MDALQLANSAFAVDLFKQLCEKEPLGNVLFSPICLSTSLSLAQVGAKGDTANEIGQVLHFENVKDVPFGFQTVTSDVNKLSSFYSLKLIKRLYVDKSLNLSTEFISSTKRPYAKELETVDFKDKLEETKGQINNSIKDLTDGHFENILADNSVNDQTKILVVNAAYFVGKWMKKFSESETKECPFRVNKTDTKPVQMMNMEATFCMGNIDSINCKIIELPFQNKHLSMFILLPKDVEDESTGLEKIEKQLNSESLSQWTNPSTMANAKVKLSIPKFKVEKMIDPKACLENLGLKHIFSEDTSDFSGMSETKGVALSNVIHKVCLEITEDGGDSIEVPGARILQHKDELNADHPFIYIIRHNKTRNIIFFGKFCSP
Experiment: co-IP

desmoplakin (from UniProt P15924 1-2871)
binding: binds
